## Library screening results

Data taken from ChEMBL document CHEMBL3988442, “University of Dundee, Small-Polar-MMV Screening Library” (2021).

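Whole-cell assay for inhibitors of Mycobacterium tuberculosis growth, labelled Cornell in the record; the read-out is not stated. The concentration is filed as 10 mM, unlikely as a test dose, so the dose is not known. Higher means stronger inhibition (inferred from two other growth screens of the library). Of about 53,000 compounds tested this way, about 900 (1.7%) reached 50% or more in at least one test.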

The filed quantity is “Percent Effect” (%). The record does not define 0% and 100%; most values in the screen are far below 50% and negative numbers occur (in some assays of this library far below -100). This is an unselected part of the compounds tested.

{"compound": "O=c1[nH]c(NCCO)nc2c1C1(CCCC1)Cc1ccccc1-2", "effect": -4.136}
{"compound": "Cc1c(C)n(Cc2ccccn2)c2nc3c(c(N)c12)CCCCCC3", "effect": 20.18}
{"compound": "CCN1CCCC1Cn1ccc2ccc(C(=O)OC)cc2c1=O", "stereo": "centres unmarked", "effect": 13.01}
{"compound": "CC(C)c1cc(C(=O)N2CCN(c3ccc(F)c(Cl)c3)CC2)n(C)n1", "effect": 54.92}
{"compound": "Cn1cc(C(=O)NC(Cn2cccn2)C(C)(C)C)cn1", "stereo": "centres unmarked", "effect": -12.19}
{"compound": "COc1ccc(CN2CCC3(CCCN(C)C3=O)C2)c(Cl)c1OC", "stereo": "centres unmarked", "effect": 41.14}
{"compound": "O=C(NCc1ccc(Cl)s1)c1cc(CN2CCCC(O)C2)on1", "stereo": "centres unmarked", "effect": -9.689}
{"compound": "CC(C)c1noc(-c2ccc(NCCCN3CCCC(O)C3)nc2)n1", "stereo": "centres unmarked", "effect": -1.762}
{"compound": "COc1ccc(CCC(=O)N2CCCC(n3cncn3)C2)cc1", "stereo": "centres unmarked", "effect": -28.79}
{"compound": "CN1CC2(CCN(Cc3cccnc3)CC2)c2cccc(F)c21.Cl", "effect": 20.11}
{"compound": "Cc1ccc(OC2CCN(CCn3cncn3)CC2)cc1", "effect": 8.944}
{"compound": "CN1CC[C@H](c2nnc(-c3cncn3C)o2)C1", "effect": -20.08}
{"compound": "CCCC(C)NCc1cnc(-c2cccc(C)c2)nc1", "stereo": "centres unmarked", "effect": 36.45}
{"compound": "COCC1CN(C(=O)Cc2ccccn2)Cc2ncnn2C1.O=C(O)C(F)(F)F", "stereo": "centres unmarked", "effect": -4.27}
{"compound": "OCCc1ccccc1-n1ccnc1-c1cn(C2CCNCC2)nn1", "effect": -39.15}
{"compound": "CC(C)c1cc(NC(=O)CN2CCc3ccccc3C2)on1", "effect": 14.69}
{"compound": "COc1cccn(Cc2nnc(-c3cccc(F)c3)o2)c1=O", "effect": 11.63}
{"compound": "CC1COCCN1Cc1nc(-c2cccs2)no1", "stereo": "centres unmarked", "effect": 12}
{"compound": "COCc1cc(NCc2ccccc2-n2cncn2)ncn1", "effect": -67.83}
{"compound": "[H][C@]12CCN(C(=O)NCc3ccccc3)C[C@@]1([H])OCCN(C(C)=O)C2", "effect": -13.34}
{"compound": "CCc1nn(C)c2[nH]nc(NC(=O)c3cccnc3OCC(C)C)c12", "effect": -1.999}
{"compound": "CCN1CCCC1CN(Cc1cc[nH]n1)CC1CCN(CCOC)CC1", "stereo": "centres unmarked", "effect": 35.85}
{"compound": "CN1CCc2c1nc1c(c2N)CCC1", "effect": -11.74}
{"compound": "OCc1ccc(-c2nccn2CCc2nc3c(s2)CCCC3)o1", "effect": 17.49}
{"compound": "Cc1ccc(C(=O)NC2CC2)c(-n2cnnn2)c1C", "effect": -24.21}
{"compound": "Cc1nc(C2CN(C)CCO2)cc(N2CCSCC2)n1", "stereo": "centres unmarked", "effect": -42.1}
{"compound": "COc1ccc(CCNC(=O)CC(NC(N)=O)c2ccccc2)cc1", "stereo": "centres unmarked", "effect": -1.413}
{"compound": "NC(=O)NCC(=O)N1CCCC(c2nccn2Cc2ccncc2)C1", "stereo": "centres unmarked", "effect": 16.48}
{"compound": "Cc1noc(C(C)N2CCC(c3nc4ccccc4[nH]3)CC2)n1", "stereo": "centres unmarked", "effect": -1.296}
{"compound": "CCS(=O)(=O)N1CCc2nnc(CN(C)C(C)C)n2CC1", "effect": -8.704}
{"compound": "[H][C@@]12CCN(Cc3c(C)noc3C)C[C@@]1([H])O[C@H](c1ccnc(C)n1)C2", "effect": 3.142}
{"compound": "CC[C@H](Nc1nc(C(C)C)nc2c1cnn2C)c1ccccc1", "effect": 70.75}
{"compound": "NC(=O)c1cn(CC2CC2)c(C2CC2)n1", "effect": 32.89}
{"compound": "CCc1c(NCc2cccnc2)cnn1CC(C)C", "effect": -2.167}
{"compound": "OCc1ccc(CN(CCCn2ccnc2)Cc2cccnc2)o1", "effect": 33.2}
{"compound": "CCC1CN(Cc2c(O)ccc3oc4c(c23)CCCC4)CCO1", "stereo": "centres unmarked", "effect": -11.06}
{"compound": "Cc1csc(C2CCCN(C(=O)c3cccc4c3OCO4)C2)n1", "stereo": "centres unmarked", "effect": -42.96}
{"compound": "CCCn1cnnc1CN(C)C(=O)C1CCCN(C2CCN(C)CC2)C1", "stereo": "centres unmarked", "effect": 15.02}
{"compound": "c1cc(CN2CCCCC2c2ccc(Nc3cnccn3)nc2)ccn1", "stereo": "centres unmarked", "effect": 73.82}

The first 4 entries again:

Compound,effect
O=c1[nH]c(NCCO)nc2c1C1(CCCC1)Cc1ccccc1-2,-4.136
Cc1c(C)n(Cc2ccccn2)c2nc3c(c(N)c12)CCCCCC3,20.18
CCN1CCCC1Cn1ccc2ccc(C(=O)OC)cc2c1=O (centres unmarked),13.01
CC(C)c1cc(C(=O)N2CCN(c3ccc(F)c(Cl)c3)CC2)n(C)n1,54.92